Experimental data reported in paper PMC11744840.
These are yes or no findings as the source states them, for the method shown. In cells and extracts the contact can be indirect. Some results given as binding are weak or reduced against the parent protein; the word gives no strength. Values belong to the substance of their own block, whether it stands above or below them.

By UniProt entry, the sequences of proteins in these tests, tags left out. Where a name states a change or a piece, a line headed by the entry shows the natural chain unless it says otherwise.
UniProt P63104: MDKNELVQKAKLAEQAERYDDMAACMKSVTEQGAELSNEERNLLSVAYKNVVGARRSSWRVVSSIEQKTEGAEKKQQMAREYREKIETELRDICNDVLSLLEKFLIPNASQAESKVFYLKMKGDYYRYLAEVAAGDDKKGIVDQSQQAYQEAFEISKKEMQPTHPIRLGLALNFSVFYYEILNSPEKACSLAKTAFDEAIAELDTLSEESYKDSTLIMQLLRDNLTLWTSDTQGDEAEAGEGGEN
UniProt P06733: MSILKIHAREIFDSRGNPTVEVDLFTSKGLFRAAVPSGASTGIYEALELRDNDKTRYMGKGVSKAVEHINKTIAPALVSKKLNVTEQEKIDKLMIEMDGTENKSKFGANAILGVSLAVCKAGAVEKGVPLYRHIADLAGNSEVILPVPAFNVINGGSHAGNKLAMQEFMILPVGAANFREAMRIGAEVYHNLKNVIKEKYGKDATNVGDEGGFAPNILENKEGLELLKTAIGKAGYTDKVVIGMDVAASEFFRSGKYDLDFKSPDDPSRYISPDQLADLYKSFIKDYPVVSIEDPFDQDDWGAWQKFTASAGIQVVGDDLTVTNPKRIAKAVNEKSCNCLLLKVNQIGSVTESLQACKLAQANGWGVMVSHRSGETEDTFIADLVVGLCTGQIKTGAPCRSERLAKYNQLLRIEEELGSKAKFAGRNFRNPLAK
UniProt Q9UBN7: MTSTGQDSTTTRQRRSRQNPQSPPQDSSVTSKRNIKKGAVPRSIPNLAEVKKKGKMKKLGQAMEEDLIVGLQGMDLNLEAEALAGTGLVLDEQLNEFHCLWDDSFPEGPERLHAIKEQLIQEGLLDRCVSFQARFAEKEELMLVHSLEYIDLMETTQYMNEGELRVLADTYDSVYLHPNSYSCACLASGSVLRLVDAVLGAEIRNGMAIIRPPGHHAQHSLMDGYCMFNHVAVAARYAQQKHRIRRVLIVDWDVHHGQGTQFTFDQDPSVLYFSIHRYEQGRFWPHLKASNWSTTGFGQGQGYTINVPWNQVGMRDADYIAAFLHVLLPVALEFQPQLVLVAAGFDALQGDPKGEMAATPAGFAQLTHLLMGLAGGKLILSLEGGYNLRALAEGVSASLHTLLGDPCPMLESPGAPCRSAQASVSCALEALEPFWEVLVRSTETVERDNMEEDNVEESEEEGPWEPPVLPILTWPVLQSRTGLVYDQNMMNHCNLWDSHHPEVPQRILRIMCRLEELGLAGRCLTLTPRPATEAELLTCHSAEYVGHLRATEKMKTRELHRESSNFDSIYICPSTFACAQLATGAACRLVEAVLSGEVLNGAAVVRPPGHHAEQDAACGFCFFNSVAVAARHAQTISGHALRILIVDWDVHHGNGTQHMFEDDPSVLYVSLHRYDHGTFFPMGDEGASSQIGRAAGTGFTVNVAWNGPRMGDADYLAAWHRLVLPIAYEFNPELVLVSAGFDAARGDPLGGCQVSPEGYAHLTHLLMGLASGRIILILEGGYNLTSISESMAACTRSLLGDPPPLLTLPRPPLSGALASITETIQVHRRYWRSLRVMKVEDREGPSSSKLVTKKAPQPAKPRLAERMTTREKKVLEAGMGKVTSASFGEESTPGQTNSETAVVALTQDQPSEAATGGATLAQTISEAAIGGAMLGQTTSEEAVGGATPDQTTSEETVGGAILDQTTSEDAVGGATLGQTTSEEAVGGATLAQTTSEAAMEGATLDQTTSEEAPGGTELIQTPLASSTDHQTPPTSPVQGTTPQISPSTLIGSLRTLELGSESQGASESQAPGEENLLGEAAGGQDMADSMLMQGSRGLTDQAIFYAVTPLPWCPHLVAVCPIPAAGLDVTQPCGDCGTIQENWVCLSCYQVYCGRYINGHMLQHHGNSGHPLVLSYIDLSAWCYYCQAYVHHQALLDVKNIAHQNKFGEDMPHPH
UniProt O60260: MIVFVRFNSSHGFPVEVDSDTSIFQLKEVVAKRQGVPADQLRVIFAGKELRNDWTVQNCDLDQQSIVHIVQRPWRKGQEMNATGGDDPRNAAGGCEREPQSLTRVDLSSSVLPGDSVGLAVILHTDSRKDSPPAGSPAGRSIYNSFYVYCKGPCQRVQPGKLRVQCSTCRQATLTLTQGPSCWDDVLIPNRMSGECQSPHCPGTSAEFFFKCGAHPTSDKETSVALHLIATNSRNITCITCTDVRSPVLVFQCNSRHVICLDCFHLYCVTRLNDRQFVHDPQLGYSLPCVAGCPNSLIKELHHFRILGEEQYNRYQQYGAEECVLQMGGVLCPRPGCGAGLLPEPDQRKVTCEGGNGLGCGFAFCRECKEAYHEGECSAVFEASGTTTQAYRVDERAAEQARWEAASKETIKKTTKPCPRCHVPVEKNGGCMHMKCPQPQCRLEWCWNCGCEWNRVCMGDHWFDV

Columns and labels:
[1] = target: YWHAZ (14-3-3ζ), endogenous in multiple myeloma cells (human (endogenous in H929)) (UniProt P63104); assay: co-IP; endogenous proteins in lysates of MM cells (H929); 2 µg antibody (anti-ENO1, anti-YWHAZ, anti-HDAC6) and magnetic agarose beads, 4 °C overnight; western blot
Flag-YWHAZ [2] = target: Flag-YWHAZ (UniProt P63104); assay: co-IP; HEK293T cells transfected with Flag-YWHAZ and HA-ENO1 (full length, truncated forms or enzymatic mutants); lysates immunoprecipitated with anti-Flag, blotted with anti-HA or anti-Flag
Flag-YWHAZ [3] = target: Flag-YWHAZ (UniProt P63104); assay: co-IP; HEK293T cells overexpressing HA-ENO1 with Flag-YWHAZ vector, WT or K138R; IP-western blot, Parkin detected in the immunoprecipitate
[4] = target: Enolase 1 (ENO1), endogenous in multiple myeloma cells (human (endogenous in H929)) (UniProt P06733); assay: co-IP; endogenous proteins in lysates of MM cells (H929); 2 µg antibody (anti-ENO1, anti-YWHAZ, anti-HDAC6) and magnetic agarose beads, 4 °C overnight; western blot
[5] = target: HDAC6, endogenous in multiple myeloma cells (human (endogenous in H929)) (UniProt Q9UBN7); assay: as above

binding [1]: binds
Substance: Enolase 1 (ENO1), endogenous in multiple myeloma cells (from UniProt P06733 1-434) (enzyme)

binding (Flag-YWHAZ [2]): binds
Substance: HA-ENO1 H158A (enzymatically inactive mutant, HA-Mut1) (from UniProt P06733 1-434) (enzyme)

binding (Flag-YWHAZ [2]): binds
Substance: HA-ENO1 K343R (enzymatically inactive mutant, HA-Mut2) (from UniProt P06733 1-434) (enzyme)

binding (Flag-YWHAZ [2]): binds
Substance: HA-tagged ENO1 (HA-ENO1), full length (from UniProt P06733 1-434) (enzyme)

binding (Flag-YWHAZ [3]): binds
Substance: Parkin (from UniProt O60260 1-465) (enzyme)

binding [4]: binds
binding [5]: binds
Substance: YWHAZ (14-3-3ζ), endogenous in multiple myeloma cells (from UniProt P63104 1-245)
